Data published in US20040131497A1, “PROCESS FOR STERILIZATION OF BIOLOGICAL COMPOSITIONS CONTAING PROTEIN” (priority 2002, published 2004).

Tested on: Fibrinogen
Experiment: Protein aggregate formation by SEC after UVC irradiation of fibrinogen solution
[1] = stabiliser 2 mmol/l, six passes

N[C@@H](Cc1c[nH]cn1)C(=O)O [histidine, reference compound]
new aggregates after treatment [1]: 10%
new aggregates after treatment (stabiliser 5 mmol/l, six passes): 12%

OC[C@@H](O)[C@@H](O)[C@H](O)[C@H](O)CO [mannitol, reference compound]
new aggregates after treatment [1]: 7%
new aggregates after treatment (stabiliser 100 mmol/l, six passes): 9%

COc1cc(C=O)ccc1O [vanillin]
new aggregates after treatment (stabiliser 0.01 mmol/l, eight passes): 13%
new aggregates after treatment (stabiliser 0.05 mmol/l, eight passes): 9%
new aggregates after treatment (stabiliser 0.1 mmol/l, eight passes): 7%
new aggregates after treatment (% aggregate increase) (stabiliser 0.5 mmol/l, eight passes): 3%
new aggregates after treatment (% aggregate increase) (stabiliser 1 mmol/l, eight passes): 2%
new aggregates after treatment (% aggregate increase) (stabiliser 2 mmol/l, eight passes): 1%
new aggregates after treatment (stabiliser 3 mmol/l, eight passes): 1%
new aggregates after treatment (stabiliser 4 mmol/l, eight passes): 1%
